PubChem BioAssay AID743238 (Broad Institute, 2013)
The campaign covered roughly 360,000 compounds. About 200 (0.056%) were called active. The shares of active, inactive and inconclusive entries below differ from those in the screen.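 How the source made its calls: active means mean normalized replicate activation at least 10% and every replicate at or above 10%; inconclusive means only one of the two criteria met; inactive means mean below 10% and not all replicates reach 10%.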

assay: Xi reactivation inducers in mouse fibroblasts – imaging, XiGFP fibroblasts, GFP high-content imaging, set 2, primary screen (AID 743238); settings: % GFP-positive cells imaging, 3 d, at 7.58 µM, hits give high values;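 further: 0% = median of on-plate neutral control wells and 100% = ellipticine 6 µM median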
In short: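 System: 68-5-11 XiGFP fibroblast line; Timing: 3 days compound exposure; Compound dosing: one concentration, pinned; Benchmarks: positive control ellipticine, 6 µM final; Buffer or medium: DMEM containing 5-aza-dC.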

Row | SMILES | activation
1 | O=c1c2ccccc2nc(/C=C/c2ccc([N+](=O)[O-])o2)n1-c1ccc(O)cc1 | inconclusive: 11.7%
2 | Cc1ccc2[nH]c(=S)n(-c3cccnc3)c(=O)c2c1 | inconclusive: 14%
3 | O=C(c1cccc2ccccc12)C1CCCN(Cc2ccon2)C1 (stereo not given) | active: 26.6%
4 | CC1=CC(=Cc2sc3ccccc3[n+]2C)C=C(C)O1 | inconclusive: 37%
5 | Cc1cc(/C=C2/C(=O)NC(=O)N(Cc3ccco3)C2=O)c(C)n1-c1ccccc1O | inconclusive: 29.1%
6 | COC(=O)[C@@H]1[C@@H](CO)[C@@H]2Cn3c(ccc(-c4cccc(OC)c4)c3=O)[C@H]1N2C(=O)c1ccccc1F | inactive: -0.0735%
7 | CCCN1[C@@H]2Cn3c(ccc(-c4cccc(OC)c4)c3=O)[C@H]1[C@@H](C(=O)OC)[C@@H]2CO | inactive: -0.0225%
8 | C[n+]1c(-c2ccccc2)c2cc(N)ccc2c2ccc(N)cc21 | active: 18.8%
9 | Cc1ccc(OC(=O)N(C)C[C@H]2OCc3ccccc3-c3c(n(C)c4ccccc34)C(=O)N([C@@H](C)CO)C[C@H]2C)cc1 | inactive: -0.0515%
10 | Cc1cc(=O)oc2cc3c(cc12)CCCN3 | inconclusive: 36.4%
11 | O=[N+]([O-])c1ccc(O)c([N+](=O)[O-])c1 | inconclusive: 15%
12 | OCC[n+]1c2ccccc2nc2ccc(N3CCOCC3)cc21 | inconclusive: 16.1%
13 | COP(=S)(OC)Oc1ccc(Sc2ccc(OP(=S)(OC)OC)cc2)cc1 | inconclusive: 21.2%
14 | COC(=O)Cn1cc(/C=C2\C(=O)NC(=O)N(c3ccc(OC)cc3)C2=O)c2ccccc21 | inconclusive: 13.2%
15 | O=C1C(=O)c2ccccc2-c2ccccc21 | inconclusive: 11.3%
16 | C[C@H](CO)N1C[C@H](C)[C@@H](CN(C)C(=O)Oc2ccccc2)OCc2ccccc2-c2c(n(C)c3ccccc23)C1=O | inactive: 0.165% [cells co-treated with 5-aza-dC sensitizer, scaled so ellipticine positive control = 100%]
17 | O=c1[nH]c(=O)n(CCC2=CCCCC2)c(O)c1/C=N/Nc1ccccc1 | inconclusive: 12.3%
18 | COCCCn1c(N)c(C(=O)Nc2ccccc2)c2nc3ccccc3nc21 | inconclusive: 15.8%
19 | C=CCn1c(O)c(C(C)=NCc2ccc3c(c2)OCO3)c(=O)[nH]c1=O | inconclusive: 17.9%
20 | O=C(Cc1ccccn1)N1CCCCN2[C@H](C1)[C@@H](c1ccc(-c3ccccc3F)cc1)[C@@H]2CO | inconclusive: 28.6%

Some of the entries above in another layout.
Row	SMILES	activation
10	Cc1cc(=O)oc2cc3c(cc12)CCCN3	inconclusive: 36.4%
11	O=[N+]([O-])c1ccc(O)c([N+](=O)[O-])c1	inconclusive: 15%
